Test results from the supplement of paper PMC8728848.
The other results are listed elsewhere or left out.

Legend:
Test in all cases: glycan array binding signal (z-score within array); higher = stronger binding
Details in all cases: glycan notation: IUPAC condensed, linker removed
[1] = target: Fuc(a1-2)Gal6S(b1-3)GlcNAc
How it was run: (§1)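 Columns mapping to the same glycan were averaged after glycan names were converted to IUPAC-condensed notation. The data come from 3228 arrays in the Consortium for Functional Glycomics database, limited to those with an available protein sequence. Binding is reported as a within-array Z-score averaged across arrays of one protein sequence and across linkers.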

[2] = target: Fuc(a1-2)Gal6S(b1-3)GlcNAc6S
How it was run: as §1

Fuc(a1-2)Gal6S(b1-4)Glc = target: Fuc(a1-2)Gal6S(b1-4)Glc
How it was run: as §1

[3] = target: Fuc(a1-2)Gal6S(b1-4)Glc6S
How it was run: as §1

Fuc(a1-2)[Gal(a1-3)]Gal = target: Fuc(a1-2)[Gal(a1-3)]Gal
How it was run: as §1

[4] = target: Fuc(a1-2)[Gal(a1-3)]Gal(b1-3)GalNAc
How it was run: as §1

[5] = target: Fuc(a1-2)[Gal(a1-3)]Gal(b1-3)GalNAc(b1-3)Gal(a1-4)Gal(b1-4)Glc
How it was run: as §1

[6] = target: Fuc(a1-2)[Gal(a1-3)]Gal(b1-3)GlcNAc
How it was run: as §1

[7] = target: Fuc(a1-2)[Gal(a1-3)]Gal(b1-3)GlcNAc(b1-2)Man(a1-3)[Fuc(a1-2)[Gal(a1-3)]Gal(b1-3)GlcNAc(b1-2)Man(a1-6)]Man(b1-4)GlcNAc(b1-4)GlcNAc
How it was run: as §1

[8] = target: Fuc(a1-2)[Gal(a1-3)]Gal(b1-3)GlcNAc(b1-2)Man(a1-3)[Fuc(a1-2)[Gal(a1-3)]Gal(b1-3)GlcNAc(b1-2)Man(a1-6)]Man(b1-4)GlcNAc(b1-4)[Fuc(a1-6)]GlcNAc
How it was run: as §1

[9] = target: Fuc(a1-2)[Gal(a1-3)]Gal(b1-3)GlcNAc(b1-3)GalNAc
How it was run: as §1

[10] = target: Fuc(a1-2)[Gal(a1-3)]Gal(b1-3)GlcNAc(b1-6)GalNAc
How it was run: as §1

[11] = target: Fuc(a1-2)[Gal(a1-3)]Gal(b1-4)Glc
How it was run: as §1

[12] = target: Fuc(a1-2)[Gal(a1-3)]Gal(b1-4)GlcNAc
How it was run: as §1

[13] = target: Fuc(a1-2)[Gal(a1-3)]Gal(b1-4)GlcNAc(b1-2)Man
How it was run: as §1

[14] = target: Fuc(a1-2)[Gal(a1-3)]Gal(b1-4)GlcNAc(b1-2)Man(a1-3)[Fuc(a1-2)[Gal(a1-3)]Gal(b1-4)GlcNAc(b1-2)Man(a1-6)]Man(b1-4)GlcNAc(b1-4)GlcNAc
How it was run: as §1

[15] = target: Fuc(a1-2)[Gal(a1-3)]Gal(b1-4)GlcNAc(b1-2)Man(a1-3)[Fuc(a1-2)[Gal(a1-3)]Gal(b1-4)GlcNAc(b1-2)Man(a1-6)]Man(b1-4)GlcNAc(b1-4)[Fuc(a1-6)]GlcNAc
How it was run: as §1

[16] = target: Fuc(a1-2)[Gal(a1-3)]Gal(b1-4)GlcNAc(b1-3)GalNAc
How it was run: as §1

[17] = target: Fuc(a1-2)[Gal(a1-3)]Gal(b1-4)GlcNAc(b1-3)[Fuc(a1-2)[Gal(a1-3)]Gal(b1-4)GlcNAc(b1-6)]GalNAc
How it was run: as §1

[18] = target: Fuc(a1-2)[Gal(a1-3)]Gal(b1-4)GlcNAc(b1-6)GalNAc
How it was run: as §1

[19] = target: Fuc(a1-2)[Gal(a1-3)]Gal(b1-4)[Fuc(a1-3)]Glc
How it was run: as §1

[20] = target: Fuc(a1-2)[Gal(a1-3)]Gal(b1-4)[Fuc(a1-3)]GlcNAc
How it was run: as §1

[21] = target: Fuc(a1-2)[Gal(a1-3)]Gal(b1-4)[Fuc(a1-3)]GlcNAc(b1-3)GalNAc
How it was run: as §1

[22] = target: Fuc(a1-2)[Gal(a1-4)]Gal(b1-4)GlcNAc
How it was run: as §1

[23] = target: Fuc(a1-2)[GalNAc(a1-3)]Gal
How it was run: as §1

[24] = target: Fuc(a1-2)[GalNAc(a1-3)]Gal(b1-3)GalNAc(a1-3)[Fuc(a1-2)]Gal(b1-4)GlcNAc
How it was run: as §1

[25] = target: Fuc(a1-2)[GalNAc(a1-3)]Gal(b1-3)GalNAc(b1-3)Gal(a1-4)Gal(b1-4)Glc
How it was run: as §1

[26] = target: Fuc(a1-2)[GalNAc(a1-3)]Gal(b1-3)GlcNAc
How it was run: as §1

[27] = target: Fuc(a1-2)[GalNAc(a1-3)]Gal(b1-3)GlcNAc(b1-2)Man(a1-3)[Fuc(a1-2)[GalNAc(a1-3)]Gal(b1-3)GlcNAc(b1-2)Man(a1-6)]Man(b1-4)GlcNAc(b1-4)GlcNAc
How it was run: as §1

[28] = target: Fuc(a1-2)[GalNAc(a1-3)]Gal(b1-3)GlcNAc(b1-2)Man(a1-3)[Fuc(a1-2)[GalNAc(a1-3)]Gal(b1-3)GlcNAc(b1-2)Man(a1-6)]Man(b1-4)GlcNAc(b1-4)[Fuc(a1-6)]GlcNAc
How it was run: as §1

[29] = target: Fuc(a1-2)[GalNAc(a1-3)]Gal(b1-3)GlcNAc(b1-3)GalNAc
How it was run: as §1

[30] = target: Fuc(a1-2)[GalNAc(a1-3)]Gal(b1-3)GlcNAc(b1-6)GalNAc
How it was run: as §1

[31] = target: Fuc(a1-2)[GalNAc(a1-3)]Gal(b1-4)Glc
How it was run: as §1

[32] = target: Fuc(a1-2)[GalNAc(a1-3)]Gal(b1-4)GlcNAc
How it was run: as §1

[33] = target: Fuc(a1-2)[GalNAc(a1-3)]Gal(b1-4)GlcNAc(b1-2)Man
How it was run: as §1

[34] = target: Fuc(a1-2)[GalNAc(a1-3)]Gal(b1-4)GlcNAc(b1-2)Man(a1-3)[Fuc(a1-2)[GalNAc(a1-3)]Gal(b1-4)GlcNAc(b1-2)Man(a1-6)]Man(b1-4)GlcNAc(b1-4)GlcNAc
How it was run: as §1

[35] = target: Fuc(a1-2)[GalNAc(a1-3)]Gal(b1-4)GlcNAc(b1-2)Man(a1-3)[Fuc(a1-2)[GalNAc(a1-3)]Gal(b1-4)GlcNAc(b1-2)Man(a1-6)]Man(b1-4)GlcNAc(b1-4)[Fuc(a1-6)]GlcNAc
How it was run: as §1

[36] = target: Fuc(a1-2)[GalNAc(a1-3)]Gal(b1-4)GlcNAc(b1-3)Gal(b1-4)GlcNAc
How it was run: as §1

[37] = target: Fuc(a1-2)[GalNAc(a1-3)]Gal(b1-4)GlcNAc(b1-3)Gal(b1-4)GlcNAc(b1-3)Gal(b1-4)GlcNAc
How it was run: as §1

[38] = target: Fuc(a1-2)[GalNAc(a1-3)]Gal(b1-4)GlcNAc(b1-3)GalNAc
How it was run: as §1

[39] = target: Fuc(a1-2)[GalNAc(a1-3)]Gal(b1-4)GlcNAc(b1-3)[Fuc(a1-2)[GalNAc(a1-3)]Gal(b1-4)GlcNAc(b1-6)]GalNAc
How it was run: as §1

[40] = target: Fuc(a1-2)[GalNAc(a1-3)]Gal(b1-4)GlcNAc(b1-6)GalNAc
How it was run: as §1

[41] = target: Fuc(a1-2)[GalNAc(a1-3)]Gal(b1-4)[Fuc(a1-3)]GlcNAc
How it was run: as §1

[42] = target: Fuc(a1-2)[GalNAc(a1-3)]Gal(b1-4)[Fuc(a1-3)]GlcNAc(b1-3)GalNAc
How it was run: as §1

[43] = target: Fuc(a1-2)[GalNAc(a1-4)]Gal(b1-4)GlcNAc
How it was run: as §1

B1: Epa21 (Candida glabrata) (protein)
chain: MGSSHHHHHHSSGLVPRGSHMASTPNIESHPQGCSPVDTSGIKPGLKMDLYRFPITPPGTGCWSWDWLTVTPDFPRSGYWKWPKIAEVDGVVGPLHLDSGHPTCDPLTSVLPHGFNYLQSITTTNFTMVLHGYFVPKQSGKYTFEFKADDALLLNLGAGNAFSCCDYNNSQYNQGEYLAYAIWSKNNQTATLYLEKGIYYPIRVFYHNRCCGAYMDVVYYFNDSPIPNRDFSGLLFSIPDSDSCDANI
[1]
  glycan array binding signal (z-score): -0.147
[2]
  glycan array binding signal (z-score): 4.29
Fuc(a1-2)Gal6S(b1-4)Glc
  glycan array binding signal (z-score): -0.477
[3]
  glycan array binding signal (z-score): -0.585
Fuc(a1-2)[Gal(a1-3)]Gal
  glycan array binding signal (z-score): -0.505
[4]
  glycan array binding signal (z-score): -0.27
[5]
  glycan array binding signal (z-score): -0.398
[6]
  glycan array binding signal (z-score): -0.094
[7]
  glycan array binding signal (z-score): -0.507
[8]
  glycan array binding signal (z-score): 0.177
[9]
  glycan array binding signal (z-score): -0.564
[10]
  glycan array binding signal (z-score): 0.169
[11]
  glycan array binding signal (z-score): 0.212
[12]
  glycan array binding signal (z-score): -0.541
[13]
  glycan array binding signal (z-score): -0.705
[14]
  glycan array binding signal (z-score): -0.181
[15]
  glycan array binding signal (z-score): -0.518
[16]
  glycan array binding signal (z-score): -0.264
[17]
  glycan array binding signal (z-score): 1.16
[18]
  glycan array binding signal (z-score): -0.214
[19]
  glycan array binding signal (z-score): -0.821
[20]
  glycan array binding signal (z-score): 0.234
[21]
  glycan array binding signal (z-score): 0.814
[22]
  glycan array binding signal (z-score): 0.581
[23]
  glycan array binding signal (z-score): -0.529
[24]
  glycan array binding signal (z-score): -0.201
[25]
  glycan array binding signal (z-score): -0.339
[26]
  glycan array binding signal (z-score): 0.322
[27]
  glycan array binding signal (z-score): -0.794
[28]
  glycan array binding signal (z-score): -0.396
[29]
  glycan array binding signal (z-score): 0.937
[30]
  glycan array binding signal (z-score): -0.784
[31]
  glycan array binding signal (z-score): -0.731
[32]
  glycan array binding signal (z-score): -0.553
[33]
  glycan array binding signal (z-score): -0.471
[34]
  glycan array binding signal (z-score): -0.552
[35]
  glycan array binding signal (z-score): 0.127
[36]
  glycan array binding signal (z-score): -0.274
[37]
  glycan array binding signal (z-score): 0.436
[38]
  glycan array binding signal (z-score): -0.539
[39]
  glycan array binding signal (z-score): -0.445
[40]
  glycan array binding signal (z-score): -0.634
[41]
  glycan array binding signal (z-score): -0.093
[42]
  glycan array binding signal (z-score): 0.819
[43]
  glycan array binding signal (z-score): -0.533
